Results from article PMC11957390.
Read-outs that look alike come from different tables or passages of the source. Results are given in words; binding and its absence hold for the method and conditions named. Binding seen in cells or lysates may run through a third protein. Some binding calls cover weakened binding; strength is not graded here. For some assays here: Sequences can lack the tags named with a protein.

B1: endogenous IFIT1 (A549) (protein, UniProt P09914 1-478)
chain: MSTNGDDHQVKDSLEQLRCHFTWELSIDDDEMPDLENRVLDQIEFLDTKYSVGIHNLLAYVKHLKGQNEEALKSLKEAENLMQEEHDNQANVRSLVTWGNFAWMYYHMGRLAEAQTYLDKVENICKKLSNPFRYRMECPEIDCEEGWALLKCGGKNYERAKACFEKVLEVDPENPESSAGYAISAYRLDGFKLATKNHKPFSLLPLRQAVRLNPDNGYIKVLLALKLQDEGQEAEGEKYIEEALANMSSQTYVFRYAAKFYRRKGSVDKALELLKKALQETPTSVLLHHQIGLCYKAQMIQIKEATKGQPRGQNREKLDKMIRSAIFHFESAVEKKPTFEVAHLDLARMYIEAGNHRKAEENFQKLLCMKPVVEETMQDIHFHYGRFQEFQKKSDVNAIIHYLKAIKIEQASLTRDKSINSLKKLVLRKLRRKALDLESLSLLGFVYKLEGNMNEALEYYERALRLAADFENSVRQGP
B2: human GFP-IFIT1 (protein, UniProt P09914 1-478)
chain: B1 chain
B3: human GFP-IFIT5 (protein, UniProt Q13325 1-482)
chain: MSEIRKDTLKAILLELECHFTWNLLKEDIDLFEVEDTIGQQLEFLTTKSRLALYNLLAYVKHLKGQNKDALECLEQAEEIIQQEHSDKEEVRSLVTWGNYAWVYYHMDQLEEAQKYTGKIGNVCKKLSSPSNYKLECPETDCEKGWALLKFGGKYYQKAKAAFEKALEVEPDNPEFNIGYAITVYRLDDSDREGSVKSFSLGPLRKAVTLNPDNSYIKVFLALKLQDVHAEAEGEKYIEEILDQISSQPYVLRYAAKFYRRKNSWNKALELLKKALEVTPTSSFLHHQMGLCYRAQMIQIKKATHNRPKGKDKLKVDELISSAIFHFKAAMERDSMFAFAYTDLANMYAEGGQYSNAEDIFRKALRLENITDDHKHQIHYHYGRFQEFHRKSENTAIHHYLEALKVKDRSPLRTKLTSALKKLSTKRLCHNALDVQSLSALGFVYKLEGEKRQAAEYYEKAQKIDPENAEFLTALCELRLSI
B4: endogenous IFIT5 (A549) (protein, UniProt Q13325 1-482)
chain: B3 chain
B5: endogenous IFIT2 (A549) (protein, UniProt P09913 1-472)
chain: MSENNKNSLESSLRQLKCHFTWNLMEGENSLDDFEDKVFYRTEFQNREFKATMCNLLAYLKHLKGQNEAALECLRKAEELIQQEHADQAEIRSLVTWGNYAWVYYHMGRLSDVQIYVDKVKHVCEKFSSPYRIESPELDCEEGWTRLKCGGNQNERAKVCFEKALEKKPKNPEFTSGLAIASYRLDNWPPSQNAIDPLRQAIRLNPDNQYLKVLLALKLHKMREEGEEEGEGEKLVEEALEKAPGVTDVLRSAAKFYRRKDEPDKAIELLKKALEYIPNNAYLHCQIGCCYRAKVFQVMNLRENGMYGKRKLLELIGHAVAHLKKADEANDNLFRVCSILASLHALADQYEDAEYYFQKEFSKELTPVAKQLLHLRYGNFQLYQMKCEDKAIHHFIEGVKINQKSREKEKMKDKLQKIAKMRLSKNGADSEALHVLAFLQELNEKMQQADEDSERGLESGSLIPSASSWNGE
B6: human GFP-IFIT2 (protein, UniProt P09913 1-472)
chain: B5 chain

Key:
[1] = molecular target: Myc-LSDV012 (Lumpy skin disease virus); assay: co-IP
[2] = molecular target: Myc-LSDV012 (Lumpy skin disease virus); assay: co-IP; remark: listed apart in the source

Row | Molecule | binding [1] | binding [2]
1 | bovine GFP-IFIT5 (from UniProt F6QAR8 1-482) | binds | 
2 | bovine GFP-IFIT2 (from UniProt F1MQW8 1-463) | binds | 
3 | B1 |  | binds
4 | B2 |  | binds
5 | B3 |  | binds
6 | B4 |  | binds
7 | B5 |  | binds
8 | B6 |  | binds
